Some of these results come from one statement about several compounds together.
Columns and labels:
human CYP11B2 [1] = molecular target: T1, human CYP11B2 (Homo sapiens, UniProt P19099); assay: V79-Human-CYP11B2 cell assay (aldosterone HTRF); format: cell-based; details: V79-hCYP11B2 cells, 125 nM 11-deoxycorticosterone, 3 hours
T1 construct: expressed in transfected cells; host or cells: V79 cells (clone V79-hCYP11B2-CLE9)
T1 sequence (P19099 25-503): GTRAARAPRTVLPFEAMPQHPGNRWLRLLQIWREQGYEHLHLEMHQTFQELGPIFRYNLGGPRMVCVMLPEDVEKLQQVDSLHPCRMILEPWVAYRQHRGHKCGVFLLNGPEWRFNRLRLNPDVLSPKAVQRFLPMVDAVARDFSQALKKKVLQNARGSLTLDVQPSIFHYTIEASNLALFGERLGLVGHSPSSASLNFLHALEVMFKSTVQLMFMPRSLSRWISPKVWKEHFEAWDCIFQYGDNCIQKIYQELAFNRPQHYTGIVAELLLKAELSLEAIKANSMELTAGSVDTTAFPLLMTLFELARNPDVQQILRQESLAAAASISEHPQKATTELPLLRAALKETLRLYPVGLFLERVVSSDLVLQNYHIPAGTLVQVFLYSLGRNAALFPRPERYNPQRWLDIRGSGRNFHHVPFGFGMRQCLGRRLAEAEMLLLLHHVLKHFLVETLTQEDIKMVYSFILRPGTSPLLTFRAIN
Method: Methods for V79-Human-CYP11B2 and V79-Human-CYP11B1 Assays:
V79 cell lines stably expressing the either the human CYP11B2 or the human CYP11B1 enzyme were generated using a standard transfection protocol. V79 cells were transfected with plasmids pTriEx3-Hygro-hCyp11B2 or pTriEx3-Hygro-hCyp11B1 using Lipofectamine2000 reagent. V79 cells that stably express the human CYP11B2 or human CYP11B1 enzyme were selected for and maintained in DMEM supplemented with 10% FBS and 400 μg/mL hygromycin for ˜2 weeks. Single cell clones were generated by infinite dilution in DMEM supplemented with 10% FBS and 400 μg/mL hygromycin until single colonies were obtained. Clones V79-hCYP11B2-CLE9 and V79-hCYP11B1-8C7, were determined to produce the most aldosterone and cortisol, respectively, and were selected for inhibitor screening. For testing of inhibitors, cells were harvested at 80% confluency with 0.5% Trypsan-EDTA, washed once in PBS, and reconstituted in DMEM+0.1% BSA media at a cell concentration of 400,000 cells/mL. 25 μl of cells were added to a 384 well tissue culture treated plate and mixed with 0.25 μl of inhibitor or DMSO (1% final DMSO concentration) for 1 hour at 37° C., 5% CO2. After pre-incubation with inhibitor, the reaction was initiated by adding 5 μl of substrate (final concentration of 125 nM 11-deoxycorticosterone for the CYP11B2 assay or 250 nM 11-deoxycortisol for the CYP11B1 assay). The reaction was carried out for 3 hours at 37° C., 5% CO2 and was stopped by harvesting the supernatants. The amount of product in the supernatant (aldosterone for CYP11B2 assay and cortisol for the CYP11B1 assay) was measured using HTRF-based assay kit (Aldosterone HTRF-CisBio#64ALDPEB, Cortisol HTRF-CisBio #631DC002-CORT). IC50's for the inhibitor were determined by plotting the amount of product formed against the concentration of inhibitor using sigmoidal dose-response curve (variable slope) fit in GraphPad.

human CYP11B2 [2] = molecular target: T1, human CYP11B2; assay: V79-Human-CYP11B2 cell assay, modified protocol (600,000 cells/mL); format: cell-based; details: 0.30 μl inhibitor

Structure (SMILES)	IC50 (human CYP11B2 [1]) [µM]	IC50 (human CYP11B2 [2]) [µM]
CC(C)(c1cncc(-c2ccc3c(c2)CCc2nncn2-3)c1)c1nc(C(F)(F)F)no1 [Example 68, 7-(5-{2-[3-(trifluoromethyl)-1,2,4-oxadiazol-5-yl]propan-2-yl}pyridin-3-yl)-4,5-dihydro[1,2,4]triazolo[4,3-a]quinoline]	< 10	
Cc1nnc2n1-c1ccc(-c3cncc(C(C)(C)c4nnc(C5CC5)o4)c3)cc1CC2 [Example 70, 7-{5-[2-(5-cyclopropyl-1,3,4-oxadiazol-2-yl)-2-propanyl]-3-pyridinyl}-1-methyl-4,5-dihydro[1,2,4]triazolo[4,3-a]quinoline]	< 10	
Cc1noc(C2(c3cncc(-c4ccc5c(c4)CCc4nncn4-5)c3)CC2)n1 [Example 71, 7-{5-[1-(3-methyl-1,2,4-oxadiazol-5-yl)cyclopropyl]-3-pyridinyl}-4,5-dihydro[1,2,4]triazolo[4,3-a]quinoline]	< 10	
c1cc2c(cc1-c1cncc(C3(c4nc(C5CC5)no4)CC3)c1)CCc1nncn1-2 [Example 72, 7-{5-[1(3-cyclopropyl-1,2,4-oxadiazol-5-yl)cyclopropyl]-3-pyridinyl}-4,5-dihydro[1,2,4]triazolo[4,3-a]quinoline]	< 10	
CCC1(c2cncc(-c3ccc4c(c3)CCc3nncn3-4)c2)CC1 [Example 73, 7-[5-(1-ethylcyclopropyl)-3-pyridinyl]-4,5-dihydro[1,2,4]triazolo[4,3-a]quinoline]	< 10	
Fc1cncc(-c2ccc3c(c2)CCc2nncn2-3)c1 [Example 74, 7-(5-fluoropyridin-3-yl)-4,5-dihydro-[1,2,4]triazolo[4,3-a]quinoline]	< 10	< 10
Cc1nnc2n1-c1ccc(-c3cncc(C(F)(F)F)c3)cc1CC2 [Example 75, 1-methyl-7-(5-(trifluoromethyl)pyridin-3-yl)-4,5-dihydro-[1,2,4]triazolo[4,3-a]quinoline]	< 10	< 10
Cc1nnc2n1-c1cc(C3CC3)c(-c3cncc([C@](C)(O)C(F)(F)F)c3)cc1CC2 [Example 148]	< 10	
CCc1c(F)cncc1-c1cc2c(c(C3CC3)c1)-n1c(C)nnc1CC2 [Example 149, 9-cyclopropyl-7-(4-ethyl-5-fluoropyridin-3-yl)-1-methyl-4,5-dihydro-[1,2,4] triazolo[4,3-a]quinoline]	< 10	
